Source: the supplement of paper PMC7666118
Some of the results follow.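 Rule for the calls: active = dose-dependent thermal stabilisation significant by F-test of dose-response against flat model at 10% FDR; inactive = not significant.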

Amino acid sequences for entries named in this document (tags omitted). A change or cut given only in a name is not applied to a line headed by its entry.
UniProt Q9NZR1: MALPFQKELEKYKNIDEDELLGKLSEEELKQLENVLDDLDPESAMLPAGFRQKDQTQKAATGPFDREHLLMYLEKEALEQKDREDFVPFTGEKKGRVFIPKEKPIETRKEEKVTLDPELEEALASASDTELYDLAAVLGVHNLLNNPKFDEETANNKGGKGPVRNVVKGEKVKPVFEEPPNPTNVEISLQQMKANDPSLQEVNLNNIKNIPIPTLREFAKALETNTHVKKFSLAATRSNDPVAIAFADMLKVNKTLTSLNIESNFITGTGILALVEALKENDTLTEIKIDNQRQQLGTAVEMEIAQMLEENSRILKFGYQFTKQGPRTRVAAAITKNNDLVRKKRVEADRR
UniProt Q6PID6, whole entry: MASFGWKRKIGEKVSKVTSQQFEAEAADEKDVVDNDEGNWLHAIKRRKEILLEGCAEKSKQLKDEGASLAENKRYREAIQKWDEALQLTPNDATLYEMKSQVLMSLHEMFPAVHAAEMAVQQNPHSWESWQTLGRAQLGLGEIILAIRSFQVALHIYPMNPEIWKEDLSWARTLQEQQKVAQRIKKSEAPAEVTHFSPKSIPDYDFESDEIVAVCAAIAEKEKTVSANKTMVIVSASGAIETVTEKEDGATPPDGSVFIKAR
UniProt Q13263: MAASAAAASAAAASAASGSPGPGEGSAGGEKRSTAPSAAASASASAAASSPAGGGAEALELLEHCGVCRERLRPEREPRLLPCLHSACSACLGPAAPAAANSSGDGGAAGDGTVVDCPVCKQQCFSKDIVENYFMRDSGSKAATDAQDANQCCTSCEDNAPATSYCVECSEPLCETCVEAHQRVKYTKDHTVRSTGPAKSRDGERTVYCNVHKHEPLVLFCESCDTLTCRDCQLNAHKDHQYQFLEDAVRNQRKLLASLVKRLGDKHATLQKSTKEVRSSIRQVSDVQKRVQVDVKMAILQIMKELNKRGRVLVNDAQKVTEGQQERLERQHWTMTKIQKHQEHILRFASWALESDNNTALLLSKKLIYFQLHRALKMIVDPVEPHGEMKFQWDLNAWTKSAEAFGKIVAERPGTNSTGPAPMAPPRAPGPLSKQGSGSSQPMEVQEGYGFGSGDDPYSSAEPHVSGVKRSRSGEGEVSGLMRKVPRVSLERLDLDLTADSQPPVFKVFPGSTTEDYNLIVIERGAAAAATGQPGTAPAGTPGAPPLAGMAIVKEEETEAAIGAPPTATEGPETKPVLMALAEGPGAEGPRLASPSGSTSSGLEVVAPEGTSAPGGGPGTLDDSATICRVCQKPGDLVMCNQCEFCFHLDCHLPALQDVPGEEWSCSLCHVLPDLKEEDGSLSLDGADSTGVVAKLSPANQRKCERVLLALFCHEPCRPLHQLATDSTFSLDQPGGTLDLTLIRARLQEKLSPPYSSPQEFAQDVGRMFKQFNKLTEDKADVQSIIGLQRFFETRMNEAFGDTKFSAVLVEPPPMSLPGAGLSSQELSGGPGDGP
UniProt P04818: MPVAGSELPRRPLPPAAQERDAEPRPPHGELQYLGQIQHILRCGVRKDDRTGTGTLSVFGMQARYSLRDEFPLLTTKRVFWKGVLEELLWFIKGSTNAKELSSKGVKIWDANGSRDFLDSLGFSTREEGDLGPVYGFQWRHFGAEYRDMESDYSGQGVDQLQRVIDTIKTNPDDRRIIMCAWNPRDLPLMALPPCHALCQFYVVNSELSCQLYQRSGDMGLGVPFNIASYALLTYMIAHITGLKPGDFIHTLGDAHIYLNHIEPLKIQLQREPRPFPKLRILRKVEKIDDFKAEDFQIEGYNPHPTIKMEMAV
UniProt Q86W42: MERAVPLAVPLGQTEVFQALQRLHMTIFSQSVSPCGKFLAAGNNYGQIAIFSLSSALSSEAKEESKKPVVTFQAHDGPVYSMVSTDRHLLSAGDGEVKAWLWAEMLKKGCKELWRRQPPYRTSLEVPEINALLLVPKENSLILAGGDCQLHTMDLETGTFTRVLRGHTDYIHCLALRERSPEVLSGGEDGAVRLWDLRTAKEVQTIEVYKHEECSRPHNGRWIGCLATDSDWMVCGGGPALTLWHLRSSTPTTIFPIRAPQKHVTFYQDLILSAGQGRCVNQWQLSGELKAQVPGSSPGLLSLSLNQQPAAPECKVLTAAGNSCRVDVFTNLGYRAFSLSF
UniProt Q9BQ70: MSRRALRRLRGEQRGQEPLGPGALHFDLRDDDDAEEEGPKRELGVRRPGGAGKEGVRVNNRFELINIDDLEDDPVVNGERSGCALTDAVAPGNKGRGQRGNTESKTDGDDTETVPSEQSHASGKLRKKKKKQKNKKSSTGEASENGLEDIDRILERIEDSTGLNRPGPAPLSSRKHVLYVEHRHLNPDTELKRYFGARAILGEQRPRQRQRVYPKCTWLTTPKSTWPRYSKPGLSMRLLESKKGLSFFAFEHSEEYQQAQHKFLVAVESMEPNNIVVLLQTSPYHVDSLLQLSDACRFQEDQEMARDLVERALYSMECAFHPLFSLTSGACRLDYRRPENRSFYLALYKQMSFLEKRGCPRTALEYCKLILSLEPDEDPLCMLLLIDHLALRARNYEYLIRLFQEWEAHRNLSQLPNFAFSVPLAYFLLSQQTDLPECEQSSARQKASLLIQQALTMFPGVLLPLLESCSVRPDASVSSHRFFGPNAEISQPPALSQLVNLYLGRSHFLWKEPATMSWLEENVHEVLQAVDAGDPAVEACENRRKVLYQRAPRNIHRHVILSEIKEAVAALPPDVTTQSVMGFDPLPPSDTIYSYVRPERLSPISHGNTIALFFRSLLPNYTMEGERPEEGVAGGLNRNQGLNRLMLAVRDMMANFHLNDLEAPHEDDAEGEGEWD
UniProt Q99426: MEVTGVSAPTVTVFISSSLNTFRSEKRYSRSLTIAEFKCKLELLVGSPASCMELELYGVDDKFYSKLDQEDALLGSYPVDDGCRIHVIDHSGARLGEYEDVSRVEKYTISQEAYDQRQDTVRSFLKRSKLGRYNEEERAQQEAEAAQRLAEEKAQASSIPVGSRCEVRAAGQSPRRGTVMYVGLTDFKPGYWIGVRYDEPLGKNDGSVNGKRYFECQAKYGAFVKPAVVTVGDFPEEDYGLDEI
UniProt Q8IUR0, whole entry: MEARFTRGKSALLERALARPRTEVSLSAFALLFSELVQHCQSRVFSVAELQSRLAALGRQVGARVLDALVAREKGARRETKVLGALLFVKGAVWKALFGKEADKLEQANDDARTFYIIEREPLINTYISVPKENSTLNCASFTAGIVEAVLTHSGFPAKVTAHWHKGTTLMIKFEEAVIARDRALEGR
UniProt Q9NWX6: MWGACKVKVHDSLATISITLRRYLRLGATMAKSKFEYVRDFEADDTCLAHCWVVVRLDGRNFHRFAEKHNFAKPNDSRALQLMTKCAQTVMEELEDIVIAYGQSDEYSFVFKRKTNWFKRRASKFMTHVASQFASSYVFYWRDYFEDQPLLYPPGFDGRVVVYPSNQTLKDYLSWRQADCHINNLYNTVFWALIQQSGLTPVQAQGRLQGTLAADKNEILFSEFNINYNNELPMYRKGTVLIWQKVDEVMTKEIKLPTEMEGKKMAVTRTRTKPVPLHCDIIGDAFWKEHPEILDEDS
UniProt Q9Y2L5: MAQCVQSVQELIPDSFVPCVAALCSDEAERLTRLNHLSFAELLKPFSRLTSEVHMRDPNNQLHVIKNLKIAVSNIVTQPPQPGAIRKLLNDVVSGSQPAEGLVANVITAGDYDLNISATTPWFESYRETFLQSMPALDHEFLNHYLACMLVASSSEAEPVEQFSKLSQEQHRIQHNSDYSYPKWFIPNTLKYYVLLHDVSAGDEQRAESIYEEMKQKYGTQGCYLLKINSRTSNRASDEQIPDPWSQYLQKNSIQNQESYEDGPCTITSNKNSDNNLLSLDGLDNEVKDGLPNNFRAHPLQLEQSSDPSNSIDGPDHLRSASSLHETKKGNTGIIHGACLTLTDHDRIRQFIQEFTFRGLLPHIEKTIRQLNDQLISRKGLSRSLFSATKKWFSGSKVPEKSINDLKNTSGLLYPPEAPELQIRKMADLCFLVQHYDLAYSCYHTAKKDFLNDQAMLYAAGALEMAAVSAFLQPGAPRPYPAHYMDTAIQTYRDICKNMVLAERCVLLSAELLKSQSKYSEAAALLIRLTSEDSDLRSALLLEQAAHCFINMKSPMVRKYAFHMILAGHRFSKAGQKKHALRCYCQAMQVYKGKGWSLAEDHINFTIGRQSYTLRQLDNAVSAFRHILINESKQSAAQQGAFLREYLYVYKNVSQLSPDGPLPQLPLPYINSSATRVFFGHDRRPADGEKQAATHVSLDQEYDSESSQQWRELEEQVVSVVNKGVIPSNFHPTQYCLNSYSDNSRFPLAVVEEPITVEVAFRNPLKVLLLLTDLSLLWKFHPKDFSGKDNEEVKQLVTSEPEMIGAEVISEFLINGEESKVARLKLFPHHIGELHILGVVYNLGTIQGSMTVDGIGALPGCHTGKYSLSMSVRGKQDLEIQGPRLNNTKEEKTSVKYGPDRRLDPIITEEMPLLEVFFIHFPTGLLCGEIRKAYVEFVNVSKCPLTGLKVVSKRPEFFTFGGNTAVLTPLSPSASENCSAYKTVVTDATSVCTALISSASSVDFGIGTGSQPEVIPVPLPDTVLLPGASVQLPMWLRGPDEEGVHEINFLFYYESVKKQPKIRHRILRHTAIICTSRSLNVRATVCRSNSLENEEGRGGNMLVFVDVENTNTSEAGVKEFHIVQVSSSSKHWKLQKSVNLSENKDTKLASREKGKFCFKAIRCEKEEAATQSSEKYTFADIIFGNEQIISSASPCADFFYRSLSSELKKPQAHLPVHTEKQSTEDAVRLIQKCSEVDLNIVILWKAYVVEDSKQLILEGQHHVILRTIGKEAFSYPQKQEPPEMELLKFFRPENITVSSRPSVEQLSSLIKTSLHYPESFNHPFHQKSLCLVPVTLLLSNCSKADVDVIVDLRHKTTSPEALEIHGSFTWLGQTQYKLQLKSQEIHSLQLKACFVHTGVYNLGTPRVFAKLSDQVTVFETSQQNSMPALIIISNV
UniProt Q9HA65: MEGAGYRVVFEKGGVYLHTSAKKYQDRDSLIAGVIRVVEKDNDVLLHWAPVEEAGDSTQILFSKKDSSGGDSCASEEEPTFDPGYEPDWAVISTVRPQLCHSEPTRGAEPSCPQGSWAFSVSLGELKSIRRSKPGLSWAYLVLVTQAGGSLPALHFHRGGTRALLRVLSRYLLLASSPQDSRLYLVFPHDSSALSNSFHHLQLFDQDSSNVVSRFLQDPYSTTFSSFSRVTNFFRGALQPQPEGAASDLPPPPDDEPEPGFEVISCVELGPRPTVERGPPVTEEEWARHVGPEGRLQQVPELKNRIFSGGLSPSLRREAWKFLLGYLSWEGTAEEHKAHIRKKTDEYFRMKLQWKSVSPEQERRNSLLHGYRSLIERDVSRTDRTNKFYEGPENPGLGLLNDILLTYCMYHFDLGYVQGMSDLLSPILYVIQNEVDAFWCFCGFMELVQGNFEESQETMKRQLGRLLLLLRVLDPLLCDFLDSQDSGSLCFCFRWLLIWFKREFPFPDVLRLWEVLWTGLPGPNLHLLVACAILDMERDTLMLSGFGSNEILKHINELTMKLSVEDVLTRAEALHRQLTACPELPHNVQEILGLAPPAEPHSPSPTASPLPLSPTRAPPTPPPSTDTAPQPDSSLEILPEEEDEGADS
UniProt P26639: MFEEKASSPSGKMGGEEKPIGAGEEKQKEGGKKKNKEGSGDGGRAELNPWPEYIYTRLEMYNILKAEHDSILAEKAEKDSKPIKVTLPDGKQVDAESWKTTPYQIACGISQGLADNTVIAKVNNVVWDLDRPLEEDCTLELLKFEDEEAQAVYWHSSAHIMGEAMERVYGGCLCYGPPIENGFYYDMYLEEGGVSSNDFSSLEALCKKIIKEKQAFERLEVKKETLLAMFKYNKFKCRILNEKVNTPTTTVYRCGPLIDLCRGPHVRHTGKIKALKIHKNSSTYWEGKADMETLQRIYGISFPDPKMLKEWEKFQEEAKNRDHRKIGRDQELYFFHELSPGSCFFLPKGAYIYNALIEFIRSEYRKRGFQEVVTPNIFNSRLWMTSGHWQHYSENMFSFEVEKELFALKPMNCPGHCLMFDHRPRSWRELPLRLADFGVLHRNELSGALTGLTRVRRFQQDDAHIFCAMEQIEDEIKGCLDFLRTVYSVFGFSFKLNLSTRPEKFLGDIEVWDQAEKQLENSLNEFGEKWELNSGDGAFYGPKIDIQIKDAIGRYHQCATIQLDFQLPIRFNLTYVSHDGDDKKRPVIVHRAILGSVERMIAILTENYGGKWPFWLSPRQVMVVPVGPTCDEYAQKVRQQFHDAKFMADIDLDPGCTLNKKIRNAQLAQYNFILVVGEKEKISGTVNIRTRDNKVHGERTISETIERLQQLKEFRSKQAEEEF
UniProt Q6I9Y2: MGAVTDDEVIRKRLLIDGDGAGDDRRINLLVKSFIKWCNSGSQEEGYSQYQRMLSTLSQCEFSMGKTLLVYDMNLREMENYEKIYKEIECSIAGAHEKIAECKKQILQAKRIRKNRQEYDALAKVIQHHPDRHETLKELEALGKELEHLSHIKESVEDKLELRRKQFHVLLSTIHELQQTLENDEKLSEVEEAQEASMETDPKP

Compound: Nc1nc2c(ncn2[C@@H]2O[C@H](COP(=O)(O)OP(=O)(O)OP(=O)(O)O)[C@@H](O)[C@H]2O)c(=O)[nH]1
Experiment: dose-dependent thermal stabilisation call (2D-TPP, DLPTP, 10% FDR) (binary (1 = stabilised)); higher = stabilised by the compound
Settings: system: Jurkat gel-filtered lysate; concentration range 1-500 µM
Experimental: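 2D thermal proteome profiling in gel-filtered Jurkat E6.1 lysate (2 mg/ml) treated with NaGTP (0, 1, 10, 100, 500 uM) for 10 min at room temperature, then heated 3 min at one of 12 temperatures (42-63.9 C). Soluble protein was quantified by TMT10 MS. The value is the DLPTP call of the paper: dose-dependent thermal stabilisation over all temperatures at 10% FDR (F-test of a dose-response against a flat model); one experiment, one call per tested protein.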

Row | Target | dose-dependent thermal stabilisation call
1 | TMOD2 (UniProt Q9NZR1) | inactive: 0
2 | TMEM237 (UniProt Q96Q45) | inactive: 0
3 | TTC33 (UniProt Q6PID6) | inactive: 0
4 | TRIM28 (UniProt Q13263) | inactive: 0
5 | TYMS (UniProt P04818) | inactive: 0
6 | TPX2 (UniProt Q9ULW0) | inactive: 0
7 | TOR1AIP1 (UniProt Q5JTV8) | inactive: 0
8 | TRMT6 (UniProt Q9UJA5) | inactive: 0
9 | TOM1 (UniProt O60784) | inactive: 0
10 | TNFAIP3 (UniProt P21580) | inactive: 0
11 | TCEA1 (UniProt P23193) | inactive: 0
12 | TTC39C (UniProt Q8N584) | inactive: 0
13 | THOC6 (UniProt Q86W42) | inactive: 0
14 | TIMM44 (UniProt O43615) | inactive: 0
15 | TMEM57 (UniProt Q8N5G2) | inactive: 0
16 | TNKS1BP1 (UniProt Q9C0C2) | inactive: 0
17 | TRAPPC3 (UniProt O43617) | inactive: 0
18 | TP53BP1 (UniProt Q12888) | inactive: 0
19 | TPD52 (UniProt P55327) | inactive: 0
20 | TRAT1 (UniProt Q6PIZ9) | inactive: 0

Random excerpt: 3 records from the list.
Row | Target | dose-dependent thermal stabilisation call
15 | TMEM57 (UniProt Q8N5G2) | inactive: 0
6 | TPX2 (UniProt Q9ULW0) | inactive: 0
1 | TMOD2 (UniProt Q9NZR1) | inactive: 0

Next part:

Row | Target | dose-dependent thermal stabilisation call
21 | TXNDC9 (UniProt O14530) | inactive: 0
22 | TCF3 (UniProt P15923) | inactive: 0
23 | TNRC18 (UniProt O15417) | inactive: 0
24 | TATDN1 (UniProt Q6P1N9) | active: 1
25 | TFAP4 (UniProt Q01664) | inactive: 0
26 | TRIM5 (UniProt Q9C035) | inactive: 0
27 | TCF25 (UniProt Q9BQ70) | inactive: 0
28 | TBCB (UniProt Q99426) | inactive: 0
29 | TRAPPC5 (UniProt Q8IUR0) | inactive: 0
30 | TMED8 (UniProt Q6PL24) | inactive: 0
31 | THG1L (UniProt Q9NWX6) | active: 1
32 | TRAPPC8 (UniProt Q9Y2L5) | inactive: 0
33 | TMCO6 (UniProt Q96DC7) | active: 1
34 | TFAM (UniProt Q00059) | inactive: 0
35 | TBC1D7 (UniProt Q9P0N9) | inactive: 0
36 | TBC1D17 (UniProt Q9HA65) | inactive: 0
37 | TARS (UniProt P26639) | inactive: 0
38 | TXNL1 (UniProt O43396) | active: 1
39 | THOC7 (UniProt Q6I9Y2) | inactive: 0
40 | TAX1BP3 (UniProt O14907) | inactive: 0
